Measurements taken from publication PMC9724671.
No constants are given. Whether binding was seen depends on the method and setting. Binding seen in cells or lysates may run through a third protein. Some binding calls cover weakened binding; strength is not graded here. Where a sequence is shown, tags or fusion partners need not be part of it.

Protein sequences, listed by entry. Tags and fused reporters are not part of them. Lines headed by an entry give the natural chain unless they say otherwise; changes in a name come on top.
UniProt Q96BN8: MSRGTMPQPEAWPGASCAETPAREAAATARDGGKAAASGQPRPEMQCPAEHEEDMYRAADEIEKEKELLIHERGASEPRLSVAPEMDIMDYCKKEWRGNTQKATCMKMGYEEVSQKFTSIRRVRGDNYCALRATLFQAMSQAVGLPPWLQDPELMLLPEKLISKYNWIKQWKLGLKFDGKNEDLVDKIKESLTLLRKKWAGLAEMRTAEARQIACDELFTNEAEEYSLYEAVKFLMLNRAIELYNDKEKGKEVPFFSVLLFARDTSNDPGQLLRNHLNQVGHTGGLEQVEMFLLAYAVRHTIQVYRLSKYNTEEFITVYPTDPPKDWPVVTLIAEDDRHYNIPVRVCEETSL
UniProt Q9Y572: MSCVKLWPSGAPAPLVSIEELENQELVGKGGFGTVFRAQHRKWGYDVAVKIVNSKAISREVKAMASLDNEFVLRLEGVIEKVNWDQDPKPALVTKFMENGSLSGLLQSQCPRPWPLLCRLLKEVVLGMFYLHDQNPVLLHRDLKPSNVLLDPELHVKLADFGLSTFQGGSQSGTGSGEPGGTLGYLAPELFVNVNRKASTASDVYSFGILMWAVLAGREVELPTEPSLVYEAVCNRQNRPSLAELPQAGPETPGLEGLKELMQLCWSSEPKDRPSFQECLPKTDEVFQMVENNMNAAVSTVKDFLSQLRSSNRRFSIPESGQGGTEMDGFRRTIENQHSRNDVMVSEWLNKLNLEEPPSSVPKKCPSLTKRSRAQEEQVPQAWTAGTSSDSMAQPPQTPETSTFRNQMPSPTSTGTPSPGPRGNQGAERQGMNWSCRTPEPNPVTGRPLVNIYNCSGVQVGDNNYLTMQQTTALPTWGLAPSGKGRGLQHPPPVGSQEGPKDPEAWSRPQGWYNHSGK
UniProt Q14790: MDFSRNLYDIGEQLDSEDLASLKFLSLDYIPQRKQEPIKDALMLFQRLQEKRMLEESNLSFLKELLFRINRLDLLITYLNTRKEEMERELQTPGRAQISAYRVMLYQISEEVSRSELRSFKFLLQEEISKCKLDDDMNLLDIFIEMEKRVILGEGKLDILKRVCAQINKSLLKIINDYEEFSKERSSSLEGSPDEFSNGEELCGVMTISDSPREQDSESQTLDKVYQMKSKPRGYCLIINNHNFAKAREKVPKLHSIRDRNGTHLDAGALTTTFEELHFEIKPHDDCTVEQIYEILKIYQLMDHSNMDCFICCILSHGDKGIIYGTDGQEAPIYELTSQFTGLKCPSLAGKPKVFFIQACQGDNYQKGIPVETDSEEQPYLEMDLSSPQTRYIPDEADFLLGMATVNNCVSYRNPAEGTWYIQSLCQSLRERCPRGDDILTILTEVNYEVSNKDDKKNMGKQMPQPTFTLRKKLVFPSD
UniProt Q96EP0: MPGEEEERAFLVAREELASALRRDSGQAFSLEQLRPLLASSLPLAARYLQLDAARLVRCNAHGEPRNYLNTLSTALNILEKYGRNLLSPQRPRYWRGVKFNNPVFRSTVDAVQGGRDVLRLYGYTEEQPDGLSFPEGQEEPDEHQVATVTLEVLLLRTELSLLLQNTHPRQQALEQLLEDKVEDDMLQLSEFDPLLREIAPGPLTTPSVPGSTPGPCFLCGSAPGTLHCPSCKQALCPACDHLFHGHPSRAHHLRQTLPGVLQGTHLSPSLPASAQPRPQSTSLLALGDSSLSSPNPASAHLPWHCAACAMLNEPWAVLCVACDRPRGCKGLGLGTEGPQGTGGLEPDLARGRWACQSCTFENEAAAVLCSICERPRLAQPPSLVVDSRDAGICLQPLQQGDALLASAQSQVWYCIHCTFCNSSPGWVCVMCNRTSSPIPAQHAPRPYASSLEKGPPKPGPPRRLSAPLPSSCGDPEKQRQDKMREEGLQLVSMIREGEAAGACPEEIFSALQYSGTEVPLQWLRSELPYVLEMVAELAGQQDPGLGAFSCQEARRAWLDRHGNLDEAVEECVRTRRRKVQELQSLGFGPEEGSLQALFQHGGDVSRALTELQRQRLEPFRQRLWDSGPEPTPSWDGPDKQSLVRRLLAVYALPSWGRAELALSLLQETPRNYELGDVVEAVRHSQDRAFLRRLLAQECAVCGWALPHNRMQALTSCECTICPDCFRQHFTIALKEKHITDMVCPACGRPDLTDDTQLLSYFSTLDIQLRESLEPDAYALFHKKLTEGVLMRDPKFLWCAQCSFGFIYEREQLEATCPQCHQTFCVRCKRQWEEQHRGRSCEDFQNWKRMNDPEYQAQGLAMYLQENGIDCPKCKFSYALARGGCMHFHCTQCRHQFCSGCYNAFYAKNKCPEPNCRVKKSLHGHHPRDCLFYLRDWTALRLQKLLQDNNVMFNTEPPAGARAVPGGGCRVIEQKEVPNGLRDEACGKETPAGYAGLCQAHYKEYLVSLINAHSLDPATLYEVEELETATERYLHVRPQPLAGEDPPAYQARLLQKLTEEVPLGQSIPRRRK

T1: FLAG‐tagged wild‐type (WT) human ZBP1 (Z‐DNA‐binding protein 1) (human) (UniProt Q9H171)
T1 sequence: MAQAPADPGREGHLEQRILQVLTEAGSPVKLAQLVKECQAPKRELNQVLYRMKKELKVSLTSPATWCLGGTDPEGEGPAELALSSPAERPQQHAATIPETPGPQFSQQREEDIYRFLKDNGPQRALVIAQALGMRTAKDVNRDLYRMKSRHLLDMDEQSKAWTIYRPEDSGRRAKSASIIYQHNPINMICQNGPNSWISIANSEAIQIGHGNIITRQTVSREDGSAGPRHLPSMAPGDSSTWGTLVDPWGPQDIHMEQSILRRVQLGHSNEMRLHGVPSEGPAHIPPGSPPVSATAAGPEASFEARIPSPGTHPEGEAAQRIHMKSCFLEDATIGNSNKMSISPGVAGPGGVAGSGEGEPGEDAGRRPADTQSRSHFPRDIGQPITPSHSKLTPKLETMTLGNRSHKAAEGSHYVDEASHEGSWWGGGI

T2: FLAG‐tagged wild‐type (WT) human ZBP1 (Z‐DNA‐binding protein 1) (human), Q9H171
T2 chain: T1 sequence

B1: IKKβ (enzyme, UniProt O14920 1-756)
chain: MSWSPSLTTQTCGAWEMKERLGTGGFGNVIRWHNQETGEQIAIKQCRQELSPRNRERWCLEIQIMRRLTHPNVVAARDVPEGMQNLAPNDLPLLAMEYCQGGDLRKYLNQFENCCGLREGAILTLLSDIASALRYLHENRIIHRDLKPENIVLQQGEQRLIHKIIDLGYAKELDQGSLCTSFVGTLQYLAPELLEQQKYTVTVDYWSFGTLAFECITGFRPFLPNWQPVQWHSKVRQKSEVDIVVSEDLNGTVKFSSSLPYPNNLNSVLAERLEKWLQLMLMWHPRQRGTDPTYGPNGCFKALDDILNLKLVHILNMVTGTIHTYPVTEDESLQSLKARIQQDTGIPEEDQELLQEAGLALIPDKPATQCISDGKLNEGHTLDMDLVFLFDNSKITYETQISPRPQPESVSCILQEPKRNLAFFQLRKVWGQVWHSIQTLKEDCNRLQQGQRAAMMNLLRNNSCLSKMKNSMASMSQQLKAKLDFFKTSIQIDLEKYSEQTEFGITSDKLLLAWREMEQAVELCGRENEVKLLVERMMALQTDIVDLQRSPMGRKQGGTLDDLEEQARELYRRLREKPRDQRTEGDSQEMVRLLLQAIQSFEKKVRVIYTQLSKTVVCKQKALELLPKVEEVVSLMNEDEKTVVRLQEKRQKELWNLLKIACSKVRGPVSGSPDSMNASRLSQPGQLMSQPSTASNSLPEPAKKSEELVAEAHNLCTLLENAIQDTVREQDQSFTALDWSWLQTEEEEHSCLEQAS
B2: TAK1 (enzyme, UniProt O43318 1-606)
chain: MSTASAASSSSSSSAGEMIEAPSQVLNFEEIDYKEIEVEEVVGRGAFGVVCKAKWRAKDVAIKQIESESERKAFIVELRQLSRVNHPNIVKLYGACLNPVCLVMEYAEGGSLYNVLHGAEPLPYYTAAHAMSWCLQCSQGVAYLHSMQPKALIHRDLKPPNLLLVAGGTVLKICDFGTACDIQTHMTNNKGSAAWMAPEVFEGSNYSEKCDVFSWGIILWEVITRRKPFDEIGGPAFRIMWAVHNGTRPPLIKNLPKPIESLMTRCWSKDPSQRPSMEEIVKIMTHLMRYFPGADEPLQYPCQYSDEGQSNSATSTGSFMDIASTNTSNKSDTNMEQVPATNDTIKRLESKLLKNQAKQQSESGRLSLGASRGSSVESLPPTSEGKRMSADMSEIEARIAATTAYSKPKRGHRKTASFGNILDVPEIVISGNGQPRRRSIQDLTVTGTEPGQVSSRSSSPSVRMITTSGPTSEKPTRSHPWTPDDSTDTNGSDNSIPMAYLTLDHQLQPLAPCPNSKESMAVFEQHCKMAQEYMKVQTEIALLLQRKQELVAELDQDEKDQQNTSRLVQEHKKLLDENKSLSTYYQQCKKQLEVIRSQQQKRQGTS
B3: RIPK1, Q13546 1-671 (protein)
chain: MQPDMSLNVIKMKSSDFLESAELDSGGFGKVSLCFHRTQGLMIMKTVYKGPNCIEHNEALLEEAKMMNRLRHSRVVKLLGVIIEEGKYSLVMEYMEKGNLMHVLKAEMSTPLSVKGRIILEIIEGMCYLHGKGVIHKDLKPENILVDNDFHIKIADLGLASFKMWSKLNNEEHNELREVDGTAKKNGGTLYYMAPEHLNDVNAKPTEKSDVYSFAVVLWAIFANKEPYENAICEQQLIMCIKSGNRPDVDDITEYCPREIISLMKLCWEANPEARPTFPGIEEKFRPFYLSQLEESVEEDVKSLKKEYSNENAVVKRMQSLQLDCVAVPSSRSNSATEQPGSLHSSQGLGMGPVEESWFAPSLEHPQEENEPSLQSKLQDEANYHLYGSRMDRQTKQQPRQNVAYNREEERRRRVSHDPFAQQRPYENFQNTEGKGTAYSSAASHGNAVHQPSGLTSQPQVLYQNNGLYSSHGFGTRPLDPGTAGPRVWYRPIPSHMPSLHNIPVPETNYLGNTPTMPFSSLPPTDESIKYTIYNSTGIQIGAYNYMEIGGTSSSLLDSTNTNFKEEPAAKYQAIFDNTTSLTDKHLDPIRENLGKHWKNCARKLGFTQSQIDEIDHDYERDGLKEKVYQMLQKWVMREGIKGATVGKLAQALHQCSRIDLLSSLIYVSQN

What follows are molecules tested against T1, FLAG‐tagged wild‐type (WT) human ZBP1 (Z‐DNA‐binding protein 1) (human) (assay: co-IP; anti‐FLAG M2 agarose beads on lysates of HT29/TO‐ZBP1^WT cells (and HT29/RIPK1‐KO clone aA3/TO‐ZBP1^WT cells) treated with 500 ng/ml Dox for 16 h; TBSN buffer (50 mM Tris–HCl pH 7.5, 150 mM NaCl, 0.5% NP‐40) with protease and phosphatase inhibitors and 50 mM NEM, 4°C; co‐precipitated endogenous proteins detected by Western blot). Details: not given.

binding | Molecule
binds | OTULIN (from UniProt Q96BN8 1-352) (enzyme)
binds | RIPK3 (from UniProt Q9Y572 1-518)
binds | full‐length caspase‐8 (from UniProt Q14790 1-479)
binds | LUBAC (HOIP, HOIL‐1, SHARPIN) (from UniProt Q96EP0 1-1072; Q9BYM8 1-510; Q9H0F6 1-387) (complex)
binds | phosphorylated RIPK3 (from UniProt Q9Y572 1-518)
binds | B1
binds | B2

Target: T2, FLAG‐tagged wild‐type (WT) human ZBP1 …
Assay: as above
Details: remark: other sources report otherwise

binding | Molecule
binds | B3
